Data as given in PubChem BioAssay AID1159578 (Peter MacCallum Cancer Centre, 2015).

Screen: 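siRNA pools altering how lymphatic endothelial cells close a scratch wound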 (primary screen)
Cell system: human lymphatic endothelial cells
Reagents: siRNA pool against human genes, 40 nM
Duration: 48 h after transfection
Measured: 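High-content imaging of dye-stained cells in a scratch assay measures filled wound area and nuclei per well; duplicate means given as ratio to mock and robust z-score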
Direction: migration robust z-score: higher = faster migration into the scratch; migration relative to mock: higher = more scratch area covered than mock; nuclei per well: higher = more cells in the well
Active means: 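Migration changed when robust z exceeds 2 or falls below -2 and mean nuclei number is at least 3300; otherwise not called changed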
Meaning of the calls: active = migration changed; inactive = no migration change, or too few cells
In all, the deposit lists about 18,000 reagents; this is an unselected part. About 1,030 of all reagents (5.7%) count as active. 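Inactive calls also include pools with fewer than 3300 nuclei, whose migration was not assessed.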 Raw values vary from plate to plate and are shown uncorrected. A number with no mark means an inactive call.

gene knocked down | migration robust z-score | migration class with cell-count check | migration relative to mock | nuclei per well, duplicate mean
ARHGAP42 (GeneID 143872) | 1.9 | migration z between -2 and 2; enough cells | 1.38 | 5070
ACAD8 (GeneID 27034) | -0.05 | migration z between -2 and 2; enough cells | 0.8 | 5082
PIK3C2A (GeneID 5286) | -2 | migration z between -2 and 2; enough cells | 0.42 | 3552
SLC36A1 (GeneID 206358) | -2.18 (active) | migration z below -2; enough cells | 0.39 | 3930
TOR1A (GeneID 1861) | 0 | migration z between -2 and 2; enough cells | 0.8 | 4720
CXorf58 (GeneID 254158) | 2.75 (active) | migration z above 2; enough cells | 1.59 | 7072
ADPRH (GeneID 141) | -0.69 | migration z between -2 and 2; enough cells | 0.7 | 6281
MRRF (GeneID 92399) | 0.12 | migration z between -2 and 2; enough cells | 0.92 | 5490
TBL3 (GeneID 10607) | 0.7 | migration z between -2 and 2; enough cells | 1.07 | 6725
TSGA13 (GeneID 114960) | 0.56 | migration z between -2 and 2; enough cells | 1.03 | 6562
ASPNAT (GeneID 339983) | -1.56 | migration z between -2 and 2; enough cells | 0.51 | 5924
OR8G5 (GeneID 219865) | 0.77 | migration z between -2 and 2; enough cells | 1.08 | 6467
OR8J3 (GeneID 81168) | 0.62 | migration z between -2 and 2; enough cells | 1.04 | 6516
NUP88 (GeneID 4927) | 2.01 (active) | migration z above 2; enough cells | 1.41 | 5830
NR2C2 (GeneID 7182) | -0.18 | migration z between -2 and 2; enough cells | 0.84 | 6675
SATB2 (GeneID 23314) | 0.96 | migration z between -2 and 2; enough cells | 1.13 | 5602
MLN (GeneID 4295) | 0.89 | migration z between -2 and 2; enough cells | 1.12 | 4306
KIF2B (GeneID 84643) | 0 | migration z between -2 and 2; enough cells | 0.8 | 6086
SNAP23 (GeneID 8773) | -0.56 | migration z between -2 and 2; enough cells | 0.74 | 5054
CD47 (GeneID 961) | -0.61 | migration z between -2 and 2; enough cells | 0.73 | 5668
TSPAN4 (GeneID 7106) | -0.7 | migration z between -2 and 2; enough cells | 0.7 | 5265
EDAR (GeneID 10913) | -0.78 | migration z between -2 and 2; enough cells | 0.68 | 6940
C1orf116 (GeneID 79098) | 0.18 | migration z between -2 and 2; enough cells | 0.93 | 5493
PEX7 (GeneID 5191) | 0.42 | migration z between -2 and 2; enough cells | 1 | 6840
GPC3 (GeneID 2719) | -1.09 | migration z between -2 and 2; enough cells | 0.6 | 4972
H2AC21 (GeneID 317772) | -0.04 | migration z between -2 and 2; enough cells | 0.88 | 6374
PDF (GeneID 64146) | 0.08 | migration z between -2 and 2; enough cells | 0.82 | 5428
DOCK11 (GeneID 139818) | -0.36 | migration z between -2 and 2; enough cells | 0.79 | 5155
STOX1 (GeneID 219736) | -1.57 | migration z between -2 and 2; enough cells | 0.47 | 4976
GALNT9 (GeneID 50614) | 0.19 | migration z between -2 and 2; enough cells | 0.94 | 6572
HPF1 (GeneID 54969) | 1.83 | migration z between -2 and 2; enough cells | 1.36 | 7276
SPMIP8 (GeneID 374739) | 1.23 | migration z between -2 and 2; enough cells | 1.21 | 6956
LAPTM4A (GeneID 9741) | -1.06 | migration z between -2 and 2; enough cells | 0.61 | 4776
SAMD13 (GeneID 148418) | -0.58 | migration z between -2 and 2; enough cells | 0.74 | 5599
RASSF10 (GeneID 644943) | -0.28 | migration z between -2 and 2; enough cells | 0.81 | 6678
TRAF7 (GeneID 84231) | 0.62 | migration z between -2 and 2; enough cells | 0.92 | 6500
SETMAR (GeneID 6419) | 0 | migration z between -2 and 2; enough cells | 0.81 | 6040
MTNR1B (GeneID 4544) | -0.88 | migration z between -2 and 2; enough cells | 0.64 | 6370
OVOS2P (GeneID 144203) | 0.46 | migration z between -2 and 2; enough cells | 1.01 | 6454

3 neighbouring entries already listed, quoted:
gene knocked down | migration robust z-score | migration class with cell-count check | migration relative to mock | nuclei per well, duplicate mean
NR2C2 (GeneID 7182) | -0.18 | migration z between -2 and 2; enough cells | 0.84 | 6675
SATB2 (GeneID 23314) | 0.96 | migration z between -2 and 2; enough cells | 1.13 | 5602
MLN (GeneID 4295) | 0.89 | migration z between -2 and 2; enough cells | 1.12 | 4306
